# Primary screen of a compound library

From ChEMBL document CHEMBL3988442, “University of Dundee, Small-Polar-MMV Screening Library” (2021).

Each number is a percent effect as filed.
The controls that fix the scale are not given in the record; negative values are as filed.
Compounds were drawn at random from those tested, without regard to their results.
Two or more numbers in one place are separate tests of the same structure; such repeats can differ widely.

Mtb cholesterol medium: 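Growth of Mycobacterium tuberculosis over 4 days (cholesterol / DPPC medium with tyloxapol); the read-out is not stated. Tested at 50 µM. Direction is inferred from retests: higher values go with more growth inhibition. Size under these conditions: about 69,000 compounds, about 370 of them at 50% or above in at least one test.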
Mtb glucose medium: 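Growth of Mycobacterium tuberculosis over 3 days (7H9 medium with glucose and tyloxapol); the read-out is not stated. Tested at 50 µM. Direction is inferred from retests: higher values go with more growth inhibition. About 69,000 compounds were tested under these conditions; 1.1% (about 760) showed 50% or more at least once.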

CC(C)c1nnc(CN(C)C(c2ccc(F)cc2)c2cccnc2)o1 (stereo not drawn) read Mtb cholesterol medium: -0.3958%; Mtb glucose medium: -5.684% & 4.36%.
O=C1CCCN1CCc1noc(-c2ccsc2)n1 read Mtb cholesterol medium: -1.163% & 5.052%; Mtb glucose medium: 1.286%.
CCc1nccn1C1CCCN(C(=O)c2cccc3c2OCO3)C1 (stereo not drawn) read Mtb cholesterol medium: 24.25%; Mtb glucose medium: 3.974%.
CCc1nc2ccccc2c(=O)n1CC1(O)CCN(C(=O)COC)CC1.Cl read Mtb cholesterol medium: -11.58%; Mtb glucose medium: 7.33%.
O=C(O)C(F)(F)F.[H][C@@]12CCN(CCc3ccccc3)C[C@@]1([H])O[C@H](C(=O)N1CCCC1)C2 read Mtb cholesterol medium: -10.78%; Mtb glucose medium: -20.96%.
Cc1ccc(Sc2ccc(CN3CCC4(CCCNC4=O)C3)o2)cc1 (stereo not drawn) read Mtb cholesterol medium: 7.328%; Mtb glucose medium: 38.16%.
Cc1csc(NC(=O)c2cnc(C3CCCN3)cn2)n1.Cl (stereo not drawn) read Mtb cholesterol medium: 32.28%; Mtb glucose medium: 45.58%.
[H][C@@]12CCCCN(CC(N)=O)[C@]1([H])CN(C(=O)c1ccccc1OC)C2 read Mtb cholesterol medium: -28.06%; Mtb glucose medium: -14.08%.
CC(C)CCN1CC2(CCCN(C(=O)c3cscn3)C2)CCC1=O (stereo not drawn) read Mtb cholesterol medium: -21.23%; Mtb glucose medium: 13.57%.
Cc1noc(CNC(=O)N2CCN(c3nc(C)c(C)s3)CC2)n1 read Mtb cholesterol medium: 2.185%; Mtb glucose medium: 17.27%.
O=C(O)C(F)(F)F.O=C(O)C(F)(F)F.O=C(O)C(F)(F)F.[H][C@]12CC(=O)N(Cc3cccc(C)n3)[C@@]1([H])CCN2Cc1ccccn1 read Mtb cholesterol medium: -13.85%; Mtb glucose medium: -10.8%.
O=c1nc(SCc2ccc(Cl)cc2)c2c(n1CCO)CCC2 read Mtb cholesterol medium: -24.58%; Mtb glucose medium: -15.64%.
CC(C)CNC(=O)c1ccc(NC(=O)NC2CC2)cc1Cl read Mtb cholesterol medium: 5.386%; Mtb glucose medium: 4.101% & 5.417%.
COc1cccc(CNC2CCc3ccc(C)cc32)n1 (stereo not drawn) read Mtb cholesterol medium: 7.128%; Mtb glucose medium: 19.58% & 22.48%.
CN(C)C(=O)NCC(=O)N1CCCC2(CCC(=O)N(CC3CC3)C2)C1 (stereo not drawn) read Mtb cholesterol medium: 17.61%; Mtb glucose medium: 3.237% & 2.757%.
CCN(CC)S(=O)(=O)N1CCCC(c2nccn2Cc2cccnc2)C1 (stereo not drawn) read Mtb cholesterol medium: 7.109%; Mtb glucose medium: 0.2381%.
CC(C)c1nc(C2CCCN2C(=O)c2cc(Cl)c[nH]2)no1 (stereo not drawn) read Mtb cholesterol medium: 20.9%; Mtb glucose medium: 20.8% & 17.87%.
CC(C)(C)c1ccc(C2(C(=O)NCCS(C)(=O)=O)CC2)cc1 read Mtb cholesterol medium: -24.79%; Mtb glucose medium: 3.387% & -20.59%.
Cc1nnc(NCc2cccc(OCC3CCCO3)c2)c(C#N)c1C (stereo not drawn) read Mtb cholesterol medium: 0.2952%; Mtb glucose medium: -5.172%.
CC(C)(C)NC(=O)CN1CCNCC1.Cl.Cl read Mtb cholesterol medium: -9.97%; Mtb glucose medium: -37.45%.
CCCN(CCC)C(=O)Cn1c(SC)nc2ccsc2c1=O read Mtb cholesterol medium: 0.6652%; Mtb glucose medium: -2.918%.
CC(NC(=O)NCC(C)(C)O)c1ccc(-c2cncnc2)cc1 (stereo not drawn) read Mtb cholesterol medium: -19.91%; Mtb glucose medium: -20.26% & -2.347%.
Cc1noc(C2CCC3(CCN(C(=O)c4c(C)noc4C)CC3)O2)n1 (stereo not drawn) read Mtb cholesterol medium: -4.146%; Mtb glucose medium: 6.05%.
CCOc1c(Br)cc(/C=C/c2ncc(C(=O)O)s2)cc1OC read Mtb cholesterol medium: 1.109%; Mtb glucose medium: -0.5435%.
Cn1cc(Br)cc1C(=O)NCC(C)(O)c1ccsc1 (stereo not drawn) read Mtb cholesterol medium: 9.237%; Mtb glucose medium: 24.52%.
O=C(O)C(F)(F)F.[H][C@@]12COC[C@]1([H])[C@H](NC(=O)C1CCC1)CN2Cc1csc(C)n1 read Mtb cholesterol medium: -0.1002% & -5.139%; Mtb glucose medium: -4.543% & -12.95%.
CC(C)NC(=O)CCNC(=O)c1cc(Br)cn1C(C)C read Mtb cholesterol medium: -9.815%; Mtb glucose medium: -8.542% & -5.838%.
O=C(NCCn1cccn1)C1CCC(=O)N(CC2CCCCC2)C1 (stereo not drawn) read Mtb cholesterol medium: -0.1634% & -10.64%; Mtb glucose medium: -23.11%.
c1csc(N2CCCN(Cc3nc(C4CC4)no3)CC2)n1 read Mtb cholesterol medium: -7.728%; Mtb glucose medium: 0.1709%.
CC(=O)Nc1ccc(CC(=O)N2CC(S(=O)(=O)C3CCCCC3)C2)cc1 read Mtb cholesterol medium: 18.09%; Mtb glucose medium: 20.6% & 1.289%.
[H][C@]12CC[C@]([H])(CN(C3Cc4ccccc4C3)C1)N(C(=O)N(C)C)C2 read Mtb cholesterol medium: -5.152%; Mtb glucose medium: -0.0892% & 13.46%.
O=C(O)C1CN(c2cncc(Cc3ccccc3F)n2)C1 read Mtb cholesterol medium: 8.82% & 5.159%; Mtb glucose medium: -30.31%.
CCN(Cc1ccoc1)C(=O)c1ccc(C)c(S(N)(=O)=O)c1 read Mtb cholesterol medium: 7.915%; Mtb glucose medium: 8.574%.
O=C(NC1CCCN(c2ccc(OC(F)F)cc2)C1)c1cnccn1 (stereo not drawn) read Mtb cholesterol medium: 13.61%; Mtb glucose medium: 27.35%.
Cn1nccc1C1CCN(Cc2csc(-c3ncccn3)n2)CC1 read Mtb cholesterol medium: 6.608%; Mtb glucose medium: 23.04%.
Cc1cnn(CC(C)NCc2cc(C#N)ccc2F)c1 (stereo not drawn) read Mtb cholesterol medium: -3.601% & -8.161%; Mtb glucose medium: 0.3217%.
Cc1ccc(C(=O)NCC2Cc3ccccc3O2)cc1S(C)(=O)=O (stereo not drawn) read Mtb cholesterol medium: 8.518% & 5.519%; Mtb glucose medium: 7.988%.
N#CCCN(CCC#N)C(=O)c1cccc(N2CCNC2=O)c1 read Mtb cholesterol medium: -5.829%; Mtb glucose medium: -4.936% & -16.05%.
CC(C)Cn1c(=O)n(CCn2cc(Cl)cn2)c2cc(C(=O)O)cnc21 read Mtb cholesterol medium: 9.654%; Mtb glucose medium: -4.278% & 0.3009%.
CN1CCC(N(CCc2ccccc2)Cc2noc(C3CC3)n2)CC1 read Mtb cholesterol medium: 10.16%; Mtb glucose medium: -22.64% & 5.641%.
CC(C)c1ocnc1C(=O)NC(c1nnc2n1CCNCC2)C(C)C (stereo not drawn) read Mtb cholesterol medium: 18.43%; Mtb glucose medium: 1.923%.

The first 5 entries again:

CC(C)c1nnc(CN(C)C(c2ccc(F)cc2)c2cccnc2)o1 (stereo not drawn) read Mtb cholesterol medium: -0.3958%; Mtb glucose medium: -5.684% & 4.36%.
O=C1CCCN1CCc1noc(-c2ccsc2)n1 read Mtb cholesterol medium: -1.163% & 5.052%; Mtb glucose medium: 1.286%.
CCc1nccn1C1CCCN(C(=O)c2cccc3c2OCO3)C1 (stereo not drawn) read Mtb cholesterol medium: 24.25%; Mtb glucose medium: 3.974%.
CCc1nc2ccccc2c(=O)n1CC1(O)CCN(C(=O)COC)CC1.Cl read Mtb cholesterol medium: -11.58%; Mtb glucose medium: 7.33%.
O=C(O)C(F)(F)F.[H][C@@]12CCN(CCc3ccccc3)C[C@@]1([H])O[C@H](C(=O)N1CCCC1)C2 read Mtb cholesterol medium: -10.78%; Mtb glucose medium: -20.96%.